From patent US20230270832A1, “MAGEA1 IMMUNOGENIC PEPTIDES, BINDING PROTEINS RECOGNIZING MAGEA1 IMMUNOGENIC PEPTIDES, AND USES THEREOF” (TScan Therapeutics, Inc., priority 2021, published 2023)
No constants are given. Whether binding was seen depends on the method and setting. Some binding calls cover weakened binding; strength is not graded here.

Target: MAGEA1 peptide VRFFFPSL (SEQ ID NO: 1) presented by HLA-C*07:02 (human)
Test: told of the functional T cell screens of the Examples; no direct binding assay was done

Row | binding | Binder
1 | binds | MAGEA1 TCR 32-41 (TCR, V domains shown) V domain 1: QLLEQSPQFLSIQEGENLTVYCNSSSVFSSLQWYRQEPGEGPVLLVTVVTGGEVKKLKRLTFQFGDARKDSSLHITAAQPGDTGLYLCAGDESISYGKLTFGQGTILTVHP V domain 2: DAGVIQSPRHEVTEMGQEVTLRCKPISGHDYLFWYRQTMMRGLELLIYFNNNVPIDDSGMPEDRFSAKMPNASFSTLKIQPSEPRDSAVYFCASSFLGWNEKLFFGSGTQLSVLE
2 | binds | MAGEA1 TCR 32-39 (TCR, V domains shown) V domain 1: DQQVKQNSPSLSVQEGRISILNCDYTNSMFDYFLWYKKYPAEGPTFLISISSIKDKNEDGRFTVFLNKSAKHLSLHIVPSQPGDSAVYFCAASAQNNDMRFGAGTRLTVKP V domain 2: NAGVMQNPRHLVRRRGQEARLRCSPMKGHSHVYWYRQLPEEGLKFMVYLQKENIIDESGMPKERFSAEFPKEGPSILRIQQVVRGDSAAYFCASSPSYEQYFGPGTRLTVTE
